No constants are given. Whether binding was seen depends on the method and setting. Binding seen in cells or lysates may run through a third protein. Some results given as binding are weak or reduced against the parent protein; the word gives no strength.

By UniProt entry, the sequences of proteins in these tests, tags left out.
UniProt Q15583: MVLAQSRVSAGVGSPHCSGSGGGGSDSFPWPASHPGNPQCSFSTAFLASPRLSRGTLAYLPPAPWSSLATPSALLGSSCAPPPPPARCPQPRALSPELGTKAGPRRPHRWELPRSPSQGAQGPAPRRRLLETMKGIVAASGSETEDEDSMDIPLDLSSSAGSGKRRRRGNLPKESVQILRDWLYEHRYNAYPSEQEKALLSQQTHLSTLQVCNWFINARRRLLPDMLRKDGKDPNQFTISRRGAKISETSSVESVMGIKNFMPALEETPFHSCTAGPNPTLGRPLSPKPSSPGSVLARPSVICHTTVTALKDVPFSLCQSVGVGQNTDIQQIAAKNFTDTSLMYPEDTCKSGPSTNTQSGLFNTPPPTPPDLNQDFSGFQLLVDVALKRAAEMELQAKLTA

The target in assay [1] is T1, SIN3A (human (endogenous in MDA-MB-231 and D3H2LN)) (UniProt Q96ST3).
T1 sequence: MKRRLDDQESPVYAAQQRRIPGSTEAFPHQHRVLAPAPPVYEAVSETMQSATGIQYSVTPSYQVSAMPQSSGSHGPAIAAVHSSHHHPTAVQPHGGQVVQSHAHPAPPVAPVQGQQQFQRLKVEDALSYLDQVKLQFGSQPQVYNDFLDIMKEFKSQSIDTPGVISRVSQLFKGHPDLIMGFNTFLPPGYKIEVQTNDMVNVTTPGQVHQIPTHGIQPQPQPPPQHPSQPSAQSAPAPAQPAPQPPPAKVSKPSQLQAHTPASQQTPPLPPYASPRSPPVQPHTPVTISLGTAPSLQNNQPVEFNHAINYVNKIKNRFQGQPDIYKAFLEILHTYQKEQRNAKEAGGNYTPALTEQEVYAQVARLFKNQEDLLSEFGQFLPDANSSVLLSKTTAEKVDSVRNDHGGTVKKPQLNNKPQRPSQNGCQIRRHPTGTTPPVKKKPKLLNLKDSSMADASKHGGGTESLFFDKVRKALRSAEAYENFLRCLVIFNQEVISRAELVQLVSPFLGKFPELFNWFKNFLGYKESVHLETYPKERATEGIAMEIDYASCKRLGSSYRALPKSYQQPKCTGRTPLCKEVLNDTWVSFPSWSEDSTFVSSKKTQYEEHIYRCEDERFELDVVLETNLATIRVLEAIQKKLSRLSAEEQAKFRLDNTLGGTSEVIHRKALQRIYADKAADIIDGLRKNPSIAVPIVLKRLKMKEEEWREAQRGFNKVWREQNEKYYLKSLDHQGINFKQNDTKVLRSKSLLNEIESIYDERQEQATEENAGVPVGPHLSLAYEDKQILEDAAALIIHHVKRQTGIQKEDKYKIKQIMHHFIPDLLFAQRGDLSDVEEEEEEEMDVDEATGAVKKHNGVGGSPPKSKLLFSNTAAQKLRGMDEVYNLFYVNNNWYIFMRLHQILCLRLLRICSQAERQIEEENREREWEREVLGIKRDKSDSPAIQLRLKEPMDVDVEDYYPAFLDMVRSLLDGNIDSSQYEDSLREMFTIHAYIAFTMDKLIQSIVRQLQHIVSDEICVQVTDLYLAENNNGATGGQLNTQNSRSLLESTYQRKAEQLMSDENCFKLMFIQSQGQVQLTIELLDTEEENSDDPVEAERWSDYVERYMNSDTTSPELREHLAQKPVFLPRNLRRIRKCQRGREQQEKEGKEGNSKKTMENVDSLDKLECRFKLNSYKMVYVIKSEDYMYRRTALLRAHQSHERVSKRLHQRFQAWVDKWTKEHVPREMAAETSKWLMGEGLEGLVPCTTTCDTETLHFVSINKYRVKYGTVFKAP
Put plainly: proximity ligation; PLA of SIN3A and TGIF1 in MDA-MB-231 cells, untreated or treated with SCR or SID peptide (2.5 μM, 24 or 72 hours); signals per cell in the nucleus counted.

For assay [2], the target named is T1, SIN3A (human (endogenous in MDA-MB-231 and D3H2LN)). Put plainly: co-IP; nuclear extract of D3H2LN cells, untreated or treated with SCR or SID peptide (2.5 μM, 24 or 72 hours); IP with SIN3A polyclonal antibody (sc 767) and blot for TGIF1, and IP with TGIF1 polyclonal antibody (H-172) and blot for SIN3A.

With TGIF1 (from UniProt Q15583 1-401), the binding entry in assay [1] and in assay [2] was “binds” each time.

The values are drawn from PMC5687616.
